# PubChem BioAssay AID1487 (National Center for Advancing Translational Sciences (NCATS), 2009)
# Values joined by “and” are separate entries in the source; they are usually repeats but may differ in a detail not shown here. Equal values may be shown once. Some of the results follow. The main result of the screen is listed elsewhere. These columns were measured beside it and carry no call. The list favours compounds with an active or inconclusive main result. Potencies come from curve fits of mixed quality, noted in brackets.
# Test: qHTS Assay for Modulators of Lamin A Splicing
# Details: HeLa LMNA splicing GFP/RFP minigene ratio, 48 h
# Summary of the method: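 S3 HeLa stable clones carrying a lamin A-EGFP splicing minigene plus DsRed2 were seeded at 600 cells/well in Opti-MEM with 2% FBS, pin-dosed and incubated 48 h at 37°C. Acumen cytometry (488 nm) gave the GFP/RFP total-intensity ratio.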
# [1] = measured here: GFP splicing reporter channel
# [2] = measured here: RFP viability control channel
Compound,AC50 [1],AC50 [2]
C=CCNC(=O)COC(=O)c1ccccc1C(=O)N(C)C1CCCCC1,"0.0316 µM [falling, full curve, poor fit]","0.0316 µM [falling, full curve, poor fit]"
CCOC(=O)N1CCN(C(=O)c2ccc(Cl)c(S(=O)(=O)Nc3ccccc3)c2)CC1,,"8.91 µM [rising, partial curve, poor fit]"
COc1ccc(NC(=O)CCC(=O)c2cccs2)cc1S(=O)(=O)Nc1ccc(Cl)cc1,,"35.5 µM [rising, single point]"
CCOc1ccc(NC(=O)Cn2ccn(-c3ccc(F)c(F)c3)c(=O)c2=O)cc1,"0.1 µM [rising, full curve]",
C#CCn1c(S(=O)(=O)Cc2ccc(F)cc2)nc(-c2ccccc2)c1-c1ccccc1,,"4.47 µM [rising, full curve]"
O=C(CN1CCN(Cc2ccccc2)CC1)N/N=C/c1c[nH]c2ccccc12,,"35.5 µM [rising, single point]"
Cc1nn(-c2ccccc2)c2[nH]c(=O)c(CNCc3ccc4c(c3)OCO4)cc12,,"7.08 µM [rising, partial curve]"
CCOCCSc1c(C)cnc2c1c(=O)n(C)c(=O)n2C,,"0.0708 µM [rising, full curve, poor fit]"
Cc1oc(-c2cc(F)ccc2F)nc1CN1CCN(c2ncnc3ccccc23)CC1,"1.78 µM [rising, partial curve]","1.41 µM [rising, partial curve]"
CC(=O)N1c2ccc(S(=O)(=O)N3CCCCCC3)cc2CC1C(=O)NCc1ccc(Cl)cc1 (stereo unspecified),"35.5 µM [falling, single point]","10 µM [falling, partial curve]"
C/C(=N\N=C(N)N)c1ccc(Cl)cc1,"4.47 µM [rising, partial curve, poor fit]","10 µM [rising, partial curve, poor fit]"
CC(=O)Nc1sc2c(c1C(c1ccc(Cl)cc1)N1CCOCC1)CCCC2 (stereo unspecified),"25.1 µM [falling, single point]",
CSC1=C(C#N)C(c2ccc(Cl)cc2)C2=C(CC(C)(C)CC2=O)N1 (stereo unspecified),"5.62 µM [rising, single point]","2.82 µM [rising, partial curve]"
Cc1ccc2cc(CN(Cc3ccco3)C(=O)NC3CCCCC3)c(=O)[nH]c2c1C,,"35.5 µM [rising, single point]"
COc1ccc(-c2cc(C(=O)NCc3ccc(F)cc3)c3c(-c4ccc(F)cc4)[nH]nc3n2)cc1OC,"12.6 µM [falling, partial curve]","17.8 µM [falling, partial curve, poor fit]"
COc1ccccc1C1CC(c2ccc(Br)cc2)=NN1C(=O)c1cccnc1 (stereo unspecified),,"0.282 µM [rising, full curve, poor fit]"
CNC1(C)C2CCC(C2)C1(C)C (stereo unspecified),"5.62 µM [rising, single point] and 2.51 µM [rising, single point]","0.00501 µM [falling, full curve, poor fit]"

Compound,AC50 [1],AC50 [2]
CCOC(=O)c1[nH]c(C)c(CCC(=O)NCc2ccccc2Cl)c1C,"0.501 µM [rising, single point]","17.8 µM [rising, partial curve]"
CCC(C)Nc1ncnc2c1cnn2Cc1ccc(Cl)cc1 (stereo unspecified),,"35.5 µM [rising, single point]"
Cc1oc(-c2ccccc2Cl)nc1CN1CCCN(C(=O)c2ccco2)CC1,,"11.2 µM [falling, partial curve, poor fit]"
CCOc1ccc(C(=O)NC2CC3CCCC(C2)N3CC(C)C)cc1 (stereo unspecified),"2.51 µM [falling, partial curve, poor fit]",
Cc1nc2cncnc2n(Cc2ccccc2Cl)c1=O,"25.1 µM [falling, partial curve, poor fit]",
Cc1ccc(C)c(NC(=O)Cn2cc(C(=O)c3ccc(Cl)cc3)c(=O)c3ccc(C)nc32)c1,,"0.0178 µM [falling, full curve]"
COc1ccc(N2C(=O)C3NN=C(C(=O)OCc4ccccc4)C3C2=O)cc1 (stereo unspecified),,"5.62 µM [falling, full curve]"
Cc1ccc(Sc2sc(=O)n(C)c2S(=O)(=O)c2ccc(C)cc2)cc1,"31.6 µM [rising, single point]",
O=C(Cc1cccc2ccccc12)N/N=C/C=C/c1cccc([N+](=O)[O-])c1,,"22.4 µM [rising, single point]"
OCCn1c(-c2ccccc2)csc1=Nc1ccccc1,"12.6 µM [rising, partial curve]","25.1 µM [rising, partial curve]"
COc1ccc(OC)c(NC(=O)Cn2cc(C=O)c3ccccc32)c1,"0.178 µM [falling, full curve, poor fit]","0.0355 µM [falling, full curve, poor fit]"
CC/C(O)=C1\C(=O)CC(C)(C)CC1=Nc1ccccc1C,"12.6 µM [rising, partial curve, poor fit]","17.8 µM [rising, partial curve, poor fit]"
O=C(Nc1ccc2c(c1)OCCO2)c1ccc(S(=O)(=O)N2CCCCC2)cc1,,"35.5 µM [rising, single point]"
Cc1ccc(C(=O)COC(=O)c2ccccc2NC(=O)c2ccccc2)cc1[N+](=O)[O-],,"17.8 µM [rising, partial curve]"
O=c1[nH]c(=O)n([C@@H]2C[C@H](O)[C@H](CO)O2)cc1C(F)(F)F,"0.02 µM [falling, full curve, poor fit]",
S=c1[nH]nc(C2CCCCC2)n1Cc1ccccc1,,"0.316 µM [falling, full curve, poor fit]"
COCCn1c(=O)c(-c2cn(C)c3ccccc23)nc2cnc(OCc3ccccc3)nc21,"20 µM [falling, partial curve]","12.6 µM [falling, single point]"

# Part of the list above in a different format.
Compound	AC50 [1]	AC50 [2]
O=C(Cc1cccc2ccccc12)N/N=C/C=C/c1cccc([N+](=O)[O-])c1		22.4 µM [rising, single point]
OCCn1c(-c2ccccc2)csc1=Nc1ccccc1	12.6 µM [rising, partial curve]	25.1 µM [rising, partial curve]
COc1ccc(OC)c(NC(=O)Cn2cc(C=O)c3ccccc32)c1	0.178 µM [falling, full curve, poor fit]	0.0355 µM [falling, full curve, poor fit]
